Test results reported in paper PMC4673825, “Active site coupling in Plasmodium falciparum GMP synthetase is triggered by domain rotation” (Nature Communications, 2015).
These are yes or no findings as the source states them, for the method shown.

Target: PfGATase (isolated glutamine amidotransferase domain of PfGMPS) (Plasmodium falciparum) (UniProt Q8IJR9)
Assay: SEC; analytical gel filtration, Superdex 200 HR 10/30, 50 mM Tris-HCl pH 7.4, 100 mM KCl; 100 μl of 20 μM protein, each injected individually; both purified

binding: no binding (tested: 20 μM)
B1: PfGATase (isolated glutamine amidotransferase domain of PfGMPS) (domain or fragment, UniProt Q8IJR9 1-236)
chain: MEGEEYDKILVLNFGSQYFHLIVKRLNNIKIFSETKDYGVELKDIKDMNIKGVILSGGPYSVTEAGSPHLKKEVFEYFLEKKIPIFGICYGMQEIAVQMNGEVKKSKTSEYGCTDVNILRNDNINNITYCRNFGDSSSAMDLYSNYKLMNETCCLFENIKSDITTVWMNHNDEVTKIPENFYLVSSSENCLICSIYNKEYNIYGVQYHPEVYESLDGELMFYNFAYNICKCKKQFD
